Assay: peptide synthesis
Settings: late stage modification step

[[(ε-NHCO-PEG1100)8(α-NH2·HCl)8][Lys]8[Lys]4[Lys]2[Lys]-CONH—CH2—CH2—S-]2MAL-PEG3-NHCO-PEG24-CONH-PEG4-(PhTzMe)
step yield: 95%

Reference: US20240293588A1 (Starpharma Pty Ltd, priority 2020, published 2024)
